# Assay results as given in patent publication US11590167B2, “Methods and compositions for use of therapeutic T cells in combination with kinase inhibitors” (Juno Therapeutics, Inc., priority 2016, dated 2023).
# For some of these results: At least one structure is not confirmed: it was looked up by name or label, or the drawing left a doubt. Some entries share one result that the patent states for a list of compounds.
# Columns and labels:
# Itk = molecular target: T1, Itk (Homo sapiens, UniProt Q08881); details: does not exhibit inhibitory activity or only above this value; literature value given as embodiment; read-out: IC50 value, inhibitory activity against Itk; cited from earlier work
# T1 sequence (Q08881 1-620): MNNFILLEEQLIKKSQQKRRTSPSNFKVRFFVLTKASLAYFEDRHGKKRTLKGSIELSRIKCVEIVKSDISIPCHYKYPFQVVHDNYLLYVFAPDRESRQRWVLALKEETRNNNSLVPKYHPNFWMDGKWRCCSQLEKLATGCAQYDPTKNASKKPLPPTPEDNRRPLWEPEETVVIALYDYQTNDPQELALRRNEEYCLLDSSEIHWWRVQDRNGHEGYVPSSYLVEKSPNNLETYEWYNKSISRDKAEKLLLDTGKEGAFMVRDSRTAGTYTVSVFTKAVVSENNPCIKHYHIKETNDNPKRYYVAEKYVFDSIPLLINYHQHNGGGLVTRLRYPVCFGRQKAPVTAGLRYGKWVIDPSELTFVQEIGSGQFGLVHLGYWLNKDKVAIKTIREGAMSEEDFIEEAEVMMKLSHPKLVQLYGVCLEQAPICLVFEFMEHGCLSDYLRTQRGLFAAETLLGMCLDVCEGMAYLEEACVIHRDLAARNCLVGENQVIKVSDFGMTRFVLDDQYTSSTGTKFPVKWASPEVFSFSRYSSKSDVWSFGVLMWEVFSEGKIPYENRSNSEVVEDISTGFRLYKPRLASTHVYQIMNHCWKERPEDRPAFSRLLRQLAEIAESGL
# anti-CD19 CAR T cells [1] = test: Cytolytic activity of anti-CD19 CAR T cells co-cultured with K562-CD19 target cells (IncuCyte); format: cell-based, human
# Excerpt: (§1) To generate CAR-expressing T cells, T cells were isolated by immunoaffinity-based enrichment from three healthy human donor subjects, and cells from each donor were activated and transduced with a viral vector encoding an anti-CD19 CAR. The CAR contained an anti-CD19 scFv, an Ig-derived spacer, a human CD28-derived transmembrane domain, a human 4-1BB-derived intracellular signaling domain and a human CD3 zeta-derived signaling domain. The nucleic acid construct encoding the CAR also included a truncated EGFR (tEGFR) sequence for use as a transduction marker, separated from the CAR sequence by a self-cleaving T2A sequence.
# (§2) CAR-expressing CD4+ and CD8+ cells were mixed 1:1 for each donor, individually, and the pooled cells for each donor assessed in vitro under various conditions.
# CAR T cells generated as described above were plated in triplicate on Poly-D-Lysine plates and then co-cultured with ibrutinib-resistant, CD19-expressing target cells (K562 cells transduced to express CD19, K562-CD19) at an effector to target (E:T) ratio of 2.5:1. The targets cells were labeled with NucLight Red (NLR) to permit tracking of target cells by microscopy. […] Cytolytic activity was assessed by measuring the loss of viable target cells over a period of four days, as determined by red fluorescent signal (using the IncuCyte® Live Cell Analysis System, Essen Bioscience).
# anti-CD19 CAR T cells [2] = test: Expression of CAR-T cell surface markers over 4 days after stimulation with irradiated K562-CD19 (flow cytometry); format: cell-based, human
# Excerpt: as §1, §2
# CAR-T cells generated as described above were plated at 100,000 cells/well on 96 well Poly-D-Lysine coated plates. Irradiated K562-CD19 target cells were added at an effector to target ratio of 2.5:1.
# anti-CD19 CAR T cells [3] = test: Cytokine production by anti-CD19 CAR T cells co-cultured with irradiated K562-CD19 (MSD); format: cell-based, human; details: overall, three donors, culture supernatants; ibrutinib 0.5-500 nM; Formula (II) 50-5000 nM
# Description: CAR-T cells generated as described above were plated at 100,000 cells/well on 96 well Poly-D-Lysine coated plates. Irradiated target cells (K562-CD19) were added at an effector to target ratio of 2.5:1. […] Culture supernatants were harvested at day 2, 3 or 4, and IFNγ, IL-2 and TNFa were measured from the culture supernatants using cytokine kits from Meso Scale Discovery (MSD).
# anti-CD19 CAR-T cells = test: Serial restimulation assay, expansion of anti-CD19 CAR-T cells; format: cell-based, human
# Description: The ability of cells to expand ex vivo following repeated stimulations in some aspects can indicate capacity of CAR-T cells to persist (e.g., following initial activation) and/or is indicative of function and/or fitness in vivo (Zhao et al. (2015) Cancer Cell, 28:415-28). Anti-CD19 CAR-T cells generated as described above were plated in triplicate at 100,000 cells/well on 96 well Poly-D-Lysine coated plates, and irradiated target cells (K562-CD19) were added at an effector to target ratio of 2.5:1. […] A total of 7 rounds of stimulation during a 25 day culture period were carried out.
# For each round of stimulation, the fold change in cell number and the number of doublings was determined. […] Expansion kinetics were similar in all treatment groups after three rounds of stimulation (day 11), as observed by fold change and number of population doublings. […] The cells derived from the two donors in which these differences were observed, generally, as compared to those derived from the other donor, performed less well in the serial restimulation assay in the absence of either inhibitor.
# anti-CD19 CAR T cells [4] = test: TH1 phenotype of anti-CD19 CAR T cells in serial restimulation assay (flow cytometry); format: cell-based, human
# Description: A serial restimulation assay was performed as described above and cells were harvested at various times and analyzed by flow cytometry to assess percentage of TH1-phenotype (assessed as CD4+CXCR3+CRTH2-) T cells or TH2-phenotype (assessed as CD4+CXCR3-CRTH2+).
# CAR T cells = test: Activation and memory markers of CAR T cells from the serial stimulation assay (flow cytometry); format: cell-based, human
# [5] = system: CD19+Nalm-6 disseminated tumor line; test: Nalm-6 disseminated tumor xenograft mouse model, inhibitor by oral gavage with suboptimal anti-CD19 CAR T dose; format: in vivo, NOD/Scid/gc−/−(NSG) mice
# [6] = system: Nalm-6 cells expressing firefly luciferase; test: Nalm-6 disseminated tumor xenograft mouse model, inhibitor in drinking water with suboptimal anti-CD19 CAR T dose; format: in vivo, NSG mice
# Description: To permit assessment of the effect of a combination therapy with the inhibitor, a suboptimal dose of anti-CD19 CAR T cells was i.v. injected into the mice at 5×10^5/mouse at day 5. As a control, mice were administered the vehicle control without administration of the CAR-T cells or inhibitor.
# Following treatment as described above, the tumor growth and percent survival of treated mice was determined.
# [7] = system: EGFRt+ CAR T cells and/or tumor cells; test: CAR+ T cell and tumor cell counts in blood and bone marrow of Nalm-6 bearing mice; format: in vivo, NSG mice
# Description: (§3) NSG mice described in Example 2 were intravenously injected on day 0 with 5×10^5 Nalm-6 cells expressing firefly luciferase. […] A bridging experiment confirmed that administration of ibrutinib by drinking water was equivalent to oral gavage administration (data not shown). To permit assessment of the effect of a combination therapy with the inhibitor, a suboptimal dose of anti-CD19 CAR T cells was i.v. injected into the mice at 5×10^5/mouse at day 5. As a control, mice were administered the vehicle control without administration of the CAR-T cells or inhibitor.
# [8] = system: CAR+ T cells harvested from bone marrow; test: Ex vivo immunophenotyping (t-SNE) of CAR+ T cells harvested from bone marrow; format: in vivo, NSG mice; details: day 12 post CAR T transfer
# Description: as §3
# Cells were assessed for surface markers CD44, CD45RA, CD62L, CD154, CXCR3, CXCR4, PD-1 by flow cytometry and T-distributed stochastic neighbor embedding (t-SNE) high dimensional analysis was performed using FlowJo software. […] Using multivariate t-SNE FACS analysis based on pooled analysis from three mice per group, 4 distinct population clusters were identified (FIG. 8B). FACs histograms showing the individual expression profiles of CD4, CD8, CD62L, CD45RA, CD44 and CXCR3 from the 4 gated t-SNE in FIG. 8A overlaid on the expression of the total population (shaded) is shown in FIG. 8C. […] Statistically significant differences are indicated as […] (*), P<0.01 (**), P<0.001 (***), P<0.0001 (****).
# [9] = system: anti-CD19 CAR-T cells from patients having diffuse large B-cell lymphoma (DLBCL); test: Serial restimulation of anti-CD19 CAR-T cells made from DLBCL patients: expansion and cytolytic activity; format: cell-based, human
# CAR-expressing cells = test: RNA-Seq of CAR-expressing cells after 18 days of serial stimulation; format: cell-based, human
smiles,measurement,setting,value
"Cc1ccc(NC(=O)c2ccc3ccccc3c2)cc1C(=O)Nc1cnc(Nc2cccc(N)c2)nc1 [Compound 31, N-(3-(2-(3-Aminophenylamino)pyrimidin-5-ylcarbamoyl)-4-methylphenyl)-2-naphthamide]",IC50,Itk,> 3 µM
C=CC(=O)N1CCC[C@@H](n2nc(-c3ccc(Oc4ccccc4)cc3)c3c(N)ncnc32)C1 [ibrutinib],"cytolytic function of anti-CD19 CAR T cells against K562-CD19 target cells, normalized to untreated control","anti-CD19 CAR T cells [1]; E:T 2.5:1, four days, three healthy donors, ibrutinib 0.5-5000 nM, compound of Formula (II) 50 to 5000 nM",did not inhibit the cytolytic function
same,target cell killing by anti-CD19 CAR T cells,"anti-CD19 CAR T cells [1]; one of three donors, P<0.0001, E:T 2.5:1, four days",modestly increased target cell killing
same,"expression levels of CD69, CD107a or PD-1",anti-CD19 CAR T cells [2]; CD4+ or CD8+ CAR T cells cultured in the presence of inhibitor,subtle decrease in expression levels
same,phenotype of cells as central (TCM) or effector (TEM) memory subsets by CCR7 and CD45RA,anti-CD19 CAR T cells [2]; four days after initial stimulation,did not affect the phenotype of cells as central (TCM) or effector (TEM) memory subsets
same,"CAR T cytokine production (IFNγ, IL-2, TNFα) following stimulation with K562.CD19 cells",anti-CD19 CAR T cells [3],did not inhibit CAR T cytokine production
same,expansion as measured by population doublings following multiple rounds of restimulation,"anti-CD19 CAR-T cells; by day 18, CAR+ T cells from two of the three donors, each concentration assessed",observed to be enhanced
same,cell counts relative to control cells after five rounds of stimulation (day 18),"anti-CD19 CAR-T cells; donor 2, highest concentrations",significantly (P<0.05) increased cell counts
same,cell counts after five rounds of stimulation (day 18),"anti-CD19 CAR-T cells; donor 3, highest concentration tested","Non-significant, increased cell counts"
same,"initial growth of the CAR+ T cells (fold change, population doublings)","anti-CD19 CAR-T cells; up to three rounds of stimulation (day 11), ibrutinib 50, 500 nM, Formula (II) 158, 1581 nM",neither inhibitor was observed to impact the initial growth
same,percentage of TH1 cells,"anti-CD19 CAR T cells [4]; 18-day serial stimulation, three donors, 500 nM ibrutinib (P<0.01), compound of Formula (II) treatment",further enhanced the percentage of TH1 cells
same,percentage of CAR+ T cells exhibiting a TH1 phenotype (CD4+CXCR3+CRTH2-) after serial stimulation,anti-CD19 CAR T cells [4]; effect greater with increasing concentrations,increase the percentage of CAR+ T cells observed to exhibit a TH1 phenotype
same,CD62L expression by flow cytometry,"CAR T cells; after 18 days of serial stimulation, donors 2 and 3",significant increase in CD62L expression
same,"additional CAR T activation or memory markers (CD25, CD38, CD39, CD45RO, CD62L, CD69, CD107a, PD-1)","CAR T cells; days 0, 11, 18 and 21 of serial stimulation",No significant effects
same,survival compared with the CAR T and vehicle condition,"[5]; combined with CAR T, daily oral gavage 25 m/kg q.d., p<0.001",significantly increased survival
same,tumor burden (average radiance by bioluminescence) compared to vehicle treatment,"[5]; inhibitor alone, without CAR-T cells, daily oral gavage 25 m/kg q.d. from day 4",had no effect on tumor burden
same,median survival compared to suboptimal anti-CD19 CAR T cell dose+vehicle,"[5]; with CAR-T cells, daily oral gavage 25 m/kg q.d.",increased median survival
same,tumor growth compared to mice treated with CAR-T cells and vehicle control,"[5]; with suboptimal anti-CD19 CAR T dose 5×10^5/mouse at day 5, daily oral gavage 25 m/kg q.d., p<0.001",significantly decreased tumor growth
same,tumor growth compared with CAR T administered with vehicle alone,"[6]; with CAR T, drinking water 25 mg/kg/day",significantly (P<0.001) decreased tumor growth
same,median survival compared to suboptimal anti-CD19 CAR T cell dose+vehicle,"[6]; with CAR-T cells, drinking water 25 mg/kg/day from day 4, p<0.001",increased median survival
same,tumor cells in the blood or bone marrow compared to CAR+ cells with vehicle alone,[7]; CAR+ cell treatment combined with inhibitor,significantly fewer tumor cells were detected
same,circulating CAR+ T cells compared to CAR+ T cells and vehicle,"[7]; blood, days 7, 12, 19 and 26 post CAR+ T cell transfer, drinking water 25 mg/kg/day",significant increase in circulating CAR+ T cells
same,number of cells in the blood,"[7]; day 19 post CAR-T cell transfer, ibrutinib p<0.05, Formula (II) p<0.001",significant increase in the number of cells in the blood
same,population 2 (CD8+CD44hiCXCR3hiCD45RAloCD62Lhi) and population 4 (CD4+CD44hiCXCR3intCD45RAhiCD62Lhi) compared to control mice,[8],An increase
same,cytolytic activity of CAR+ T cells,"[9]; 50 nM ibrutinib, after 16 days of serial stimulation, cells from one patient, P<0.01",increase in cytolytic activity
same,cytolytic function of CAR+ T cells,"[9]; 500 nM ibrutinib, after 16 days of serial restimulation, each subject, P<0.001",increase in cytolytic function
same,proliferation (cell doublings) of CAR T cells derived from DLBCL patients,"[9]; 21 day serial restimulation, 50 and 500 nM ibrutinib, two patients",did not inhibit the proliferation of CAR T cells derived from either patient
same,gene expression of SELL/CD62L,CAR-expressing cells; 50 nM or 500 nM vs control,increases
same,gene expression of granzyme A (GZMA),CAR-expressing cells; 50 nM or 500 nM vs control,Decreases
same,"gene expression of HES6, HIC1, LZTFL1, NRIP1, CD38 and RARRES3","CAR-expressing cells; RNA-Seq, ATRA/Retinoic acid signaling pathway genes",downregulation
same,gene expression of MSC,"CAR-expressing cells; RNA-Seq, gene known to suppress TH2 programing",upregulation
